From the supplement of paper PMC6411743
± gives the standard deviation of the averaged measurements. The list shows a part of the results.

Columns and labels:
Assay in all cases: NP40-soluble protein abundance relative to vehicle (solubility fold change) (ratio); higher = more soluble protein in presence of GTP
UniProt Q9H0G5 = target: T1, UniProt Q9H0G5
T1 sequence (whole entry): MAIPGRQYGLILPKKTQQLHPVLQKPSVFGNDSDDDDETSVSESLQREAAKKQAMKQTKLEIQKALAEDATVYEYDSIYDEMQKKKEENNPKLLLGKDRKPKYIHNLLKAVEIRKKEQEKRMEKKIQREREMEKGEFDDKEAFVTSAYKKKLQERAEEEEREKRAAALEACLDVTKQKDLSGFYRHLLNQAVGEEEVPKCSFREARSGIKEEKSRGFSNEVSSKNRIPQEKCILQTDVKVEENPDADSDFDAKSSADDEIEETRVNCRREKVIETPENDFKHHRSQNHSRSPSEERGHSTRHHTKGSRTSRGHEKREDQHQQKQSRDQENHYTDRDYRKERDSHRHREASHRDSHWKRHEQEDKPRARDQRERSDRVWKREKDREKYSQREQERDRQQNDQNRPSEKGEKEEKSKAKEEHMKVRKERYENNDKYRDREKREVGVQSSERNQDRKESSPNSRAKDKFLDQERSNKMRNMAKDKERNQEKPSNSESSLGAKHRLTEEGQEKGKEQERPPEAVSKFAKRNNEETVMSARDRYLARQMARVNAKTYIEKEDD
Procedure, shortened: (§1)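 In three independent experiments, Jurkat crude lysate made by Dounce homogenisation was treated for 10 min at room temperature and then 3 min at 37 °C with eight concentrations ranging from 0.1 to 10 mM. It was then solubilised with 0.8% NP40 plus benzonase for 60 min at 4 °C and ultracentrifuged. The supernatant was TMT-labelled for LC-MS/MS, and each value is the fold change against the detergent-processed vehicle for the same replicate, using vsn-normalised intensities.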

UniProt Q9H0X4 = target: T2, UniProt Q9H0X4
T2 sequence (whole entry): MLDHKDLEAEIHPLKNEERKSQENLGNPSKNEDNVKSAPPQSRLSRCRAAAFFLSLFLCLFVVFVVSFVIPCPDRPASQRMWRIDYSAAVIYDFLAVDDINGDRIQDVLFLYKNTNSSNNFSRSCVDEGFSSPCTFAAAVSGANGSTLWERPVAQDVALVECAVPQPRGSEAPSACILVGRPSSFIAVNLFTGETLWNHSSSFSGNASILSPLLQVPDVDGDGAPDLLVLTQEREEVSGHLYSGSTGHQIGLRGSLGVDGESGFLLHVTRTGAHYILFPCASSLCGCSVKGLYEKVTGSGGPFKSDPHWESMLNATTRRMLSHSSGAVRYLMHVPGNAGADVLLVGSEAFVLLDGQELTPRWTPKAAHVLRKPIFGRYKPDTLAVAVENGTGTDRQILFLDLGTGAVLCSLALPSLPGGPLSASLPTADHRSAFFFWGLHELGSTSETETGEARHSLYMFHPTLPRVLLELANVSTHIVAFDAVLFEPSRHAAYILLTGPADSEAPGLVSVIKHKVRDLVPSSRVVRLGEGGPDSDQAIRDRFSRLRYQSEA
Procedure, shortened: as §1

[1] = target: T3, UniProt Q9H270 and related entries
T3 sequence (whole entry): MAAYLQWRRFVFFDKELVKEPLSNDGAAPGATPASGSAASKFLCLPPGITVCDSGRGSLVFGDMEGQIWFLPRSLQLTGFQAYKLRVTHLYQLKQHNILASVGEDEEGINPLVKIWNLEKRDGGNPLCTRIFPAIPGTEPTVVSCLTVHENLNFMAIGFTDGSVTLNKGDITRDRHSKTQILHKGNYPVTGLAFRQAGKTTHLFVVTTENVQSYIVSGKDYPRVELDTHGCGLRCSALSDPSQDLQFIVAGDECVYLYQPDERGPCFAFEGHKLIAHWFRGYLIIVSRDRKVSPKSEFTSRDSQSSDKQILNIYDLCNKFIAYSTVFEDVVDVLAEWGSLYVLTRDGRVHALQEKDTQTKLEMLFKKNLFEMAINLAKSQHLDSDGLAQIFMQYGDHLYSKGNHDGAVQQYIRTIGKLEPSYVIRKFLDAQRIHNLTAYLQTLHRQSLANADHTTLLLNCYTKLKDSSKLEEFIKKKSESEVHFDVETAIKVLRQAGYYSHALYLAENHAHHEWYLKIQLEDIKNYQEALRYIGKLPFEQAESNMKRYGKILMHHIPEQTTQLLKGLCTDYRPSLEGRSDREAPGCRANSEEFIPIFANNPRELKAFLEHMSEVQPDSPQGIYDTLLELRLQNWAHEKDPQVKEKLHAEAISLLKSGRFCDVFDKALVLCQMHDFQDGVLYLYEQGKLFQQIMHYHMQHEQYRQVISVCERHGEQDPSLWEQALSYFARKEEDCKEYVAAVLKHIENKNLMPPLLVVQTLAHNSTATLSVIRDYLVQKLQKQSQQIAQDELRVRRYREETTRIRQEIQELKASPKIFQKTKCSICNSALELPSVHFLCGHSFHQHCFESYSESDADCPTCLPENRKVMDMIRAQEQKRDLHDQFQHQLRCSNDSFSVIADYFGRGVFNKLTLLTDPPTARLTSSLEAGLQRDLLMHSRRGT
Procedure, shortened: as §1

[2] = target: T4, UniProt Q9H4L7 and related entries
T4 sequence (whole entry): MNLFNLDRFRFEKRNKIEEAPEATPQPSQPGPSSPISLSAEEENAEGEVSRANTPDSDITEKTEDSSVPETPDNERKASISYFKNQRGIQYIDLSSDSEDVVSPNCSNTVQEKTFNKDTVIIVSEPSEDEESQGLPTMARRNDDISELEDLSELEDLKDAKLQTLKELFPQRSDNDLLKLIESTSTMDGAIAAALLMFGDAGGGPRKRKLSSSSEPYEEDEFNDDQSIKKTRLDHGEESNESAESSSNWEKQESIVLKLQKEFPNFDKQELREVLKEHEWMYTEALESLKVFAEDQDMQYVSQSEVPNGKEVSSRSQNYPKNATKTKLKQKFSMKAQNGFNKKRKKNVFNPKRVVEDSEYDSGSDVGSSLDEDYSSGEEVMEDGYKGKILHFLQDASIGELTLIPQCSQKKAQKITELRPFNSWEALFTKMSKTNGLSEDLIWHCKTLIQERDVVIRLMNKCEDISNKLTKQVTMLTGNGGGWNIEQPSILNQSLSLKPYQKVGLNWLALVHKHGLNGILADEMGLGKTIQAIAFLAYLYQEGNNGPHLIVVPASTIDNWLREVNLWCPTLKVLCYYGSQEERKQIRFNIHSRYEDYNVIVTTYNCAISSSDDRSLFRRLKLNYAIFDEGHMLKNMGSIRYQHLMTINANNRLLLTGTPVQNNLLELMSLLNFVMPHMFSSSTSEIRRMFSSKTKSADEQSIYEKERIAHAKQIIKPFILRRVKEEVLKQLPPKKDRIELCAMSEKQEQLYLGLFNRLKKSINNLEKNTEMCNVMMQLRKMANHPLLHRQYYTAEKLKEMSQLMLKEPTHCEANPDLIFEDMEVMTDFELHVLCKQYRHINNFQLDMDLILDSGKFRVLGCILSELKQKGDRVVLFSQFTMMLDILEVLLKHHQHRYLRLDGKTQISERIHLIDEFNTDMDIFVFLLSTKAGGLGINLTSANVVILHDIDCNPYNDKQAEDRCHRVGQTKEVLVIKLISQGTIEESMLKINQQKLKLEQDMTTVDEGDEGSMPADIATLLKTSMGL
Procedure, shortened: as §1

UniProt Q9H993 = target: T5, UniProt Q9H993
T5 sequence (whole entry): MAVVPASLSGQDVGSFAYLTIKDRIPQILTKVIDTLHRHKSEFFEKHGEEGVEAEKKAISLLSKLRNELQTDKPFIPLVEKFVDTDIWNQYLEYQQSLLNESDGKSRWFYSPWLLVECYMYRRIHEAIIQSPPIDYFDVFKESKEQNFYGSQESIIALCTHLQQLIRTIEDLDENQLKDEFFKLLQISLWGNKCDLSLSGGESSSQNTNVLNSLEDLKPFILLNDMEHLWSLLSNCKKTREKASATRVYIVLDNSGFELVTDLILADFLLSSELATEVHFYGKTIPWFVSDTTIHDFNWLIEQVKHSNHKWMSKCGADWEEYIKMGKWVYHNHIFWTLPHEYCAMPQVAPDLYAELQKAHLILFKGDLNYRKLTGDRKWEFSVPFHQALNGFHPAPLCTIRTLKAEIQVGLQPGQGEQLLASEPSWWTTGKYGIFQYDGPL
Procedure, shortened: as §1

Compound: Nc1nc2c(ncn2[C@@H]2O[C@H](COP(=O)(O)OP(=O)(O)OP(=O)(O)O)[C@@H](O)[C@H]2O)c(=O)[nH]1 [guanosine triphosphate]
- NP40-soluble protein abundance (UniProt Q9H0G5; concentration: 4mM): 1.04 ± 0.045
- NP40-soluble protein abundance (UniProt Q9H0G5; concentration: 6mM): 1.09 ± 0.074
- NP40-soluble protein abundance (UniProt Q9H0G5; concentration: 8mM): 1.18 ± 0.02
- NP40-soluble protein abundance (UniProt Q9H0G5; concentration: 10mM): 1.21 ± 0.04
- NP40-soluble protein abundance (UniProt Q9H0X4; concentration: 0.1mM): 0.928 ± 0.043
- NP40-soluble protein abundance (UniProt Q9H0X4; concentration: 0.5mM): 0.862 ± 0.016
- NP40-soluble protein abundance (UniProt Q9H0X4; concentration: 1mM): 0.937 ± 0.053
- NP40-soluble protein abundance (UniProt Q9H0X4; concentration: 2mM): 0.882 ± 0.097
- NP40-soluble protein abundance (UniProt Q9H0X4; concentration: 4mM): 0.908 ± 0.083
- NP40-soluble protein abundance (UniProt Q9H0X4; concentration: 6mM): 0.926 ± 0.096
- NP40-soluble protein abundance (UniProt Q9H0X4; concentration: 8mM): 0.922 ± 0.036
- NP40-soluble protein abundance (UniProt Q9H0X4; concentration: 10mM): 0.961 ± 0.12
- NP40-soluble protein abundance ([1]; concentration: 0.1mM): 1.14 ± 0.15
- NP40-soluble protein abundance ([1]; concentration: 0.5mM): 1.13 ± 0.16
- NP40-soluble protein abundance ([1]; concentration: 1mM): 1.04 ± 0.15
- NP40-soluble protein abundance ([1]; concentration: 2mM): 1.07 ± 0.13
- NP40-soluble protein abundance ([1]; concentration: 4mM): 1.08 ± 0.15
- NP40-soluble protein abundance ([1]; concentration: 6mM): 1.06 ± 0.15
- NP40-soluble protein abundance ([1]; concentration: 8mM): 1.05 ± 0.11
- NP40-soluble protein abundance ([1]; concentration: 10mM): 1.01 ± 0.14
- NP40-soluble protein abundance ([2]; concentration: 0.1mM): 0.994 ± 0.042
- NP40-soluble protein abundance ([2]; concentration: 0.5mM): 1.008 ± 0.0075
- NP40-soluble protein abundance ([2]; concentration: 1mM): 0.977 ± 0.044
- NP40-soluble protein abundance ([2]; concentration: 2mM): 0.959 ± 0.021
- NP40-soluble protein abundance ([2]; concentration: 4mM): 0.943 ± 0.06
- NP40-soluble protein abundance ([2]; concentration: 6mM): 0.966 ± 0.038
- NP40-soluble protein abundance ([2]; concentration: 8mM): 0.992 ± 0.034
- NP40-soluble protein abundance ([2]; concentration: 10mM): 0.9678 ± 0.0068
- NP40-soluble protein abundance (UniProt Q9H993; concentration: 0.1mM): 0.96 ± 0.042
- NP40-soluble protein abundance (UniProt Q9H993; concentration: 0.5mM): 0.97 ± 0.028
- NP40-soluble protein abundance (UniProt Q9H993; concentration: 1mM): 0.913 ± 0.066
- NP40-soluble protein abundance (UniProt Q9H993; concentration: 2mM): 0.869 ± 0.062
- NP40-soluble protein abundance (UniProt Q9H993; concentration: 4mM): 0.861 ± 0.1
- NP40-soluble protein abundance (UniProt Q9H993; concentration: 6mM): 0.862 ± 0.059
